# Source: the supplement of paper PMC8728848
# The other results are listed elsewhere or left out.
# B1: Awp3 (Candida glabrata), B4UN32 (protein)
# chain: MISFVTLLAILGLLSISWADQTVRSVAGDQRVTDPVIVGDNSILDYYGGSNYDFSNNFEIGRGTLYIGKESYFSSFQSAPTDVPNSFHLLIKNTNNLQNNGQFIIENIKRHANQCSNSSIQVFPINFQNDGEFEIISGGVEGRCCLPTSVIAPQNFLNNGKFYYKVLTDTGSIYSGSCMQNVDIGASTTTTVNNNLWEFTGSINAQINGAVSGAAQINLDGSNMFVNANTFSGQVVNLINGGSFLQTSDPLSNIVVINGLGTSDTGVTSIAVKGKGKSFTYNPSSGIVKLTTVEGKTYAYQIGCGYNTKKFITNNDSGASYESADNFFVLTYSEPYSPQTCQLENSSIFSSNFISTSTSSSSSSSSASSLPSSMSSSLPSSLSSSLSSSLSSSMSSSMSSLFIIPPPYTTTRSSGSSIIDTEIVSFYSTTDSPGHTITGTTTTTLYGPHTHSSVSTPSSSSESSTTSNSSIESSSLPHTSVSSTPESSITPSSNTISSSPTSDFSSVQSSSIMESSSVVASSSVINSSSIVDSSSSSASSLPSSMSSSLSSSMSSSLPSSMSSSLSSSLSSSLSSSMSSSMSSLFIIPPPYTTTRSSGSSIIDTEIVSFYSTTDSPGHTITGTTTTTLYGPHTHSSVSTPSSSSESSTTSNSSIESSSLPHTSVSSTPESSITPSSNTISSSPTSDFSSVQSSSIMESSSVVASSSVINSSSIVDSSSSSASSLPSSMPSSLPSSMSSSLSSSMSSSLSSSLSSSLSSSMSSSMSSLFIIPPPYTTTRSSGSSIIDTEIVSFYSTTDSPGHTITGTTTTTLYGPHTHSSVSTPSSSSESSTTSNSSIESSSLPHTSVSSTPESSITPSSNTISSSPTSDFSSVQSSSIMESSSVVASSSATQSSSVINSSSIVDSSSSSASSLPSSMPSSLPSSLSSSLSSSLSSSMSSSMSSLFIIPPPYTTTRSSGSSIIDTEIVSFYSTTDSPGHTITGTTTTTLYESSIYSSSSSTIQESELSNTSRTTMTSNSSVSISSTSSRSSFSNTKSSTIVISQSASLPDSKTDIILSTSSNIGYSSRSLLSDLGTSISDSDIHHSVLHSTESYSSNESGTNPFTSIASLSNFIPESSSHTSTALGSENSVISSDILTTMSHPVATNSGDKPTTPKRSEQVSTTMTSSGPTPDTSSFDTDGMSAYSRPEFTTNSLEVNKSSTSQLGNNKQTFSNLQLESTRPHSENEVDNNTRLLQSIQQSSTYGTNNVNPLSPTGSISIPLTEDGQGDNNNWNSPATNDLCTQISFNLTATTITVTDRITITDSIHDISSEVITSYIYQTIVDQKTVTQTVDGKSLANKMSSIPKPSSRSLIQPQPPVAIELQEGAASTSRVSLVSLFISIILVLL
# Legend:
# Experiment in all cases: glycan array binding signal (z-score within array); higher = stronger binding
# Conditions in all cases: glycan notation: IUPAC condensed, linker removed
# [1] = molecular target: Gal(b1-3)GlcNAc(b1-2)Man(a1-3)[Gal(b1-3)GlcNAc(b1-2)Man(a1-6)]Man(b1-4)GlcNAc(b1-4)[Fuc(a1-6)]GlcNAc
# Method in brief: (§1)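 Glycan array binding is given as a within-array Z-score, which can be read as non-binding when negative. The arrays, 3228 of them, came from the Consortium for Functional Glycomics database and were retained only where the protein sequence was available. Z-scores were averaged across arrays of the same protein sequence at different concentrations or buffers and across linkers.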
# [2] = molecular target: Gal(b1-3)GlcNAc(b1-2)Man(a1-3)[GlcNAc(b1-4)][Gal(b1-3)GlcNAc(b1-2)Man(a1-6)]Man(b1-4)GlcNAc(b1-4)GlcNAc
# Method in brief: as §1
# [3] = molecular target: Gal(b1-3)GlcNAc(b1-2)[Gal(b1-3)GlcNAc(b1-6)]Man(a1-6)[Gal(b1-3)GlcNAc(b1-2)Man(a1-3)]Man(b1-4)GlcNAc(b1-4)GlcNAc
# Method in brief: as §1
# [4] = molecular target: Gal(b1-3)GlcNAc(b1-3)Gal(b1-3)GlcNAc
# Method in brief: as §1
# [5] = molecular target: Gal(b1-3)GlcNAc(b1-3)Gal(b1-4)Glc
# Method in brief: as §1
# [6] = molecular target: Gal(b1-3)GlcNAc(b1-3)Gal(b1-4)GlcNAc
# Method in brief: as §1
# [7] = molecular target: Gal(b1-3)GlcNAc(b1-3)Gal(b1-4)GlcNAc(b1-2)Man(a1-3)[Gal(b1-3)GlcNAc(b1-3)Gal(b1-4)GlcNAc(b1-2)Man(a1-6)]Man(b1-4)GlcNAc(b1-4)GlcNAc
# Method in brief: as §1
# [8] = molecular target: Gal(b1-3)GlcNAc(b1-3)Gal(b1-4)GlcNAc(b1-2)[Gal(b1-3)GlcNAc(b1-3)Gal(b1-4)GlcNAc(b1-6)]Man(a1-6)[Gal(b1-3)GlcNAc(b1-3)Gal(b1-4)GlcNAc(b1-2)Man(a1-3)]Man(b1-4)GlcNAc(b1-4)[Fuc(a1-6)]GlcNAc
# Method in brief: as §1
# [9] = molecular target: Gal(b1-3)GlcNAc(b1-3)Gal(b1-4)GlcNAc(b1-3)Gal(b1-4)GlcNAc(b1-2)[Gal(b1-3)GlcNAc(b1-3)Gal(b1-4)GlcNAc(b1-3)Gal(b1-4)GlcNAc(b1-6)]Man(a1-6)[Gal(b1-3)GlcNAc(b1-3)Gal(b1-4)GlcNAc(b1-3)Gal(b1-4)GlcNAc(b1-2)Man(a1-3)]Man(b1-4)GlcNAc(b1-4)[Fuc(a1-6)]GlcNAc
# Method in brief: as §1
# [10] = molecular target: Gal(b1-3)GlcNAc(b1-3)Gal(b1-4)GlcNAc(b1-6)[Gal(b1-3)GlcNAc(b1-3)]Gal(b1-4)Glc
# Method in brief: as §1
# [11] = molecular target: Gal(b1-3)GlcNAc(b1-3)Gal(b1-4)[Fuc(a1-3)]GlcNAc
# Method in brief: as §1
# [12] = molecular target: Gal(b1-3)GlcNAc(b1-3)Gal(b1-4)[Fuc(a1-3)]GlcNAc(b1-6)[Gal(b1-3)GlcNAc(b1-3)]Gal(b1-4)Glc
# Method in brief: as §1
# [13] = molecular target: Gal(b1-3)GlcNAc(b1-3)GalNAc
# Method in brief: as §1
# [14] = molecular target: Gal(b1-3)GlcNAc(b1-6)Gal(b1-4)GlcNAc
# Method in brief: as §1
# [15] = molecular target: Gal(b1-3)GlcNAc(b1-6)GalNAc
# Method in brief: as §1
# [16] = molecular target: Gal(b1-3)GlcNAc(b1-6)[Gal(b1-3)]GalNAc
# Method in brief: as §1
# [17] = molecular target: Gal(b1-3)GlcNAc6S
# Method in brief: as §1
# [18] = molecular target: Gal(b1-3)[Fuc(a1-4)]GlcNAc
# Method in brief: as §1
# [19] = molecular target: Gal(b1-3)[Fuc(a1-4)]GlcNAc(b1-2)Man
# Method in brief: as §1
# [20] = molecular target: Gal(b1-3)[Fuc(a1-4)]GlcNAc(b1-2)Man(a1-3)[Gal(b1-3)[Fuc(a1-4)]GlcNAc(b1-2)Man(a1-6)]Man(b1-4)GlcNAc(b1-4)[Fuc(a1-6)]GlcNAc
# Method in brief: as §1
# [21] = molecular target: Gal(b1-3)[Fuc(a1-4)]GlcNAc(b1-3)Gal(b1-3)[Fuc(a1-4)]GlcNAc
# Method in brief: as §1
# [22] = molecular target: Gal(b1-3)[Fuc(a1-4)]GlcNAc(b1-3)Gal(b1-4)[Fuc(a1-3)]GlcNAc
# Method in brief: as §1
# [23] = molecular target: Gal(b1-3)[Fuc(a1-4)]GlcNAc(b1-6)GalNAc
# Method in brief: as §1
# [24] = molecular target: Gal(b1-3)[GlcNAc(b1-6)]GalNAc
# Method in brief: as §1
# [25] = molecular target: Gal(b1-3)[Neu5Ac(a2-6)]GalNAc
# Method in brief: as §1
# [26] = molecular target: Gal(b1-3)[Neu5Ac(a2-6)]GlcNAc(b1-4)Gal(b1-4)Glc
# Method in brief: as §1
# [27] = molecular target: Gal(b1-3)[Neu5Ac(b2-6)]GalNAc
# Method in brief: as §1
# [28] = molecular target: Gal(b1-4)Gal
# Method in brief: as §1
# [29] = molecular target: Gal(b1-4)GalNAc(a1-3)[Fuc(a1-2)]Gal(b1-4)GlcNAc
# Method in brief: as §1
# [30] = molecular target: Gal(b1-4)GalNAc(b1-3)[Fuc(a1-2)]Gal(b1-4)GlcNAc
# Method in brief: as §1
binder,measurement,setting,value
B1,glycan array binding signal (z-score),[1],-0.994
same,glycan array binding signal (z-score),[2],-1.2
same,glycan array binding signal (z-score),[3],0.433
same,glycan array binding signal (z-score),[4],0.086
same,glycan array binding signal (z-score),[5],0.728
same,glycan array binding signal (z-score),[6],-0.629
same,glycan array binding signal (z-score),[7],-0.664
same,glycan array binding signal (z-score),[8],0.908
same,glycan array binding signal (z-score),[9],-1.72
same,glycan array binding signal (z-score),[10],1.3
same,glycan array binding signal (z-score),[11],-0.652
same,glycan array binding signal (z-score),[12],2.48
same,glycan array binding signal (z-score),[13],-0.027
same,glycan array binding signal (z-score),[14],-0.082
same,glycan array binding signal (z-score),[15],1.81
same,glycan array binding signal (z-score),[16],-0.513
same,glycan array binding signal (z-score),[17],-0.144
same,glycan array binding signal (z-score),[18],-0.703
same,glycan array binding signal (z-score),[19],1.38
same,glycan array binding signal (z-score),[20],-0.666
same,glycan array binding signal (z-score),[21],-0.339
same,glycan array binding signal (z-score),[22],-0.052
same,glycan array binding signal (z-score),[23],-0.102
same,glycan array binding signal (z-score),[24],0.061
same,glycan array binding signal (z-score),[25],0.147
same,glycan array binding signal (z-score),[26],-0.676
same,glycan array binding signal (z-score),[27],0.392
same,glycan array binding signal (z-score),[28],0.261
same,glycan array binding signal (z-score),[29],0.375
same,glycan array binding signal (z-score),[30],-0.76

# Rewritten tab-delimited: entries from further up.
binder	measurement	setting	value
B1	glycan array binding signal (z-score)	[14]	-0.082
same	glycan array binding signal (z-score)	[18]	-0.703
